Assay results reported in article PMC10789121, “Amine Basicity of Quinoline ATP Synthase Inhibitors Drives Antibacterial Activity against Pseudomonas aeruginosa” (ACS Medicinal Chemistry Letters, 2023).

test system: PA electron transport chain; test: Electron transport activity (ACMA fluorescence quenching) in PA 9027 inverted membrane vesicles; type: biochemical, Pseudomonas aeruginosa
Source text: The assay for PA ATP synthase activity in EC DK8/pASH20 membrane vesicles requires a functional EC ETC, so potent inhibition of the EC ETC by any compound would interfere with the determination of its IC50 for PA ATP synthase. […] Furthermore, potent inhibition of PA ETC could be an alternative mechanism of action for the antibacterial activity of the current series.
Determination of electron transport activity. As previously described,11 inverted membrane vesicles from PA 9027 or E. coli DK8 pASH20 were added to HMK buffer containing 0.3 µg/mL 9-amino-6-chloro-2-methoxyacridine (ACMA) and 0-64 µg/mL test compound in DMSO. After measurement of baseline ACMA fluorescence for 60 s, redox-driven H+ pumping was initiated by addition of NADH to 0.8 mM, and fluorescence quenching was monitored for 120 s before addition of nigericin to 0.5 µg/mL. Relative activity is reported as the minimum fluorescence value normalized to the maximum fluorescence value following addition of nigericin.

| SMILES | Fold difference = [PA ETC IC50]/[PA ATP synthase IC50] |
| --- | --- |
| CN(C)CCCCNCc1cc2ccccc2nc1SCc1ccccc1 [Compound 8] | 26 [26] |
| CCN1CCC(CCNCc2cc3ccccc3nc2SCc2ccccc2)CC1 [Compound 14] | 26 [26] |
| c1ccc(CSc2nc3ccccc3cc2CNCCC2CCN(C3CCCC3)CC2)cc1 [Compound 16] | 14 [14] |
